Experimental data: patent US20050287114A1, “Water-soluble polymeric bone-targeting drug delivery system” (University of Utah Research Foundation, priority 2003, published 2005)

Test: in vitro bone-targeting capacity: binding of conjugates to hydroxyapatite
Settings: conjugate 1 mg/mL in phosphate buffered saline, 5 mg HA, 1 h at R.T., UV absorbance of supernatant
Method: All conjugates in Table 1 were screened in vitro for their bone-targeting capacity by the following procedure. Conjugates were dissolved in phosphate buffered saline to give a concentration of 1 mg/mL. The conjugate solution (100 μL) and 100 μL of the same buffer were incubated with 5 mg of hydroxyapatite (HA, Bio-Gel HTP, DNA grade; BIO-RAD, Hercules, Calif.) for 1 h at R.T. The solution was then centrifuged. The UV absorbance at certain wavelengths (FITC, 490 nm; 9-Gly-ATC, 450 nm) of the supernatant was monitored with an ELISA plate reader. Background correction was applied. The data presented is the average of three samples. The binding efficiency is expressed as the percentage of conjugates bound to HA (FIG. 4).

NCCCC(O)(P(=O)(O)O)P(=O)(O)O [Alendronate, reference compound]
binding to HA (percentage of conjugates bound to HA): slightly lower values
